US20220024992A1, “COMPOSITIONS AND METHODS COMPRISING LYSOCINS AS BIOENGINEERED ANTIMICROBIALS FOR USE IN TARGETING GRAM-NEGATIVE BACTERIA” (The Rockefeller University, priority 2018, published 2022)
Some entries share one result that the patent states for a list of compounds.

Legend:
[1] = tested on: P. aeruginosa strains; assay: MIC, CLSI broth microdilution in CAA medium with EDDHA; settings: all seven P. aeruginosa strains that express FpvAI
[2] = tested on: P. aeruginosa strain 453; assay: Endotoxin release (chromogenic LAL assay); format: cell-based; settings: after 4 h treatment, 0.2× and 5×MIC
Description: Endotoxin Release P. aeruginosa strain 453 at 10^6 CFU/ml was treated with 0.2× and 5×MIC PyS2-GN4, colistin, meropenem or tobramycin in CAA medium for either 1 or 4 h at 37° C. The samples were subsequently centrifuged at 2,000×g for 10 min. The supernatant was collected and passed through a 0.2 μm syringe filter. Endotoxin concentration in the filtered supernatant was quantitated using the ToxinSensor Chromogenic LAL Endotoxin Assay Kit (GenScript). All data was depicted as the mean±SEM of duplicate experiments.

Substance | MIC values [1] [µg/mL] | endotoxin release, fold less than meropenem and tobramycin [2]
PyS2-I-PlyPa03: PyS2 aa 1-209, GSx3 linker, P. aeruginosa lysin PlyPa03 (aa 2-144) | ≤ 8 | 
colistin [reference compound] |  | 100- to 1,000 fold
